In the supplement of paper PMC10849652:
Some of the results follow.

Amino acid sequences for entries named in this document (tags omitted). A change or cut given only in a name is not applied to a line headed by its entry.
UniProt Q8NEZ5: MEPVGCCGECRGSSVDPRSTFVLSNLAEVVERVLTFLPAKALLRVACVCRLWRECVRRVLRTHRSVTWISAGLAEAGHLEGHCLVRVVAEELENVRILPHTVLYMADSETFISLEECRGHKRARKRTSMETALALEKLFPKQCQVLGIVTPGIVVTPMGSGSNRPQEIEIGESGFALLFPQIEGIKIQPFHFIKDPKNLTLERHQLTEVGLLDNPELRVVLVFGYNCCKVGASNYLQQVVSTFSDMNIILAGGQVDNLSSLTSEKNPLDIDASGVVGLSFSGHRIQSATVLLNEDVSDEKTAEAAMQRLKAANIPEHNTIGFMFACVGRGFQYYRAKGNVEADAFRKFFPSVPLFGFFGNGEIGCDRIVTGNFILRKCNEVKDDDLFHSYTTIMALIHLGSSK
UniProt O95684: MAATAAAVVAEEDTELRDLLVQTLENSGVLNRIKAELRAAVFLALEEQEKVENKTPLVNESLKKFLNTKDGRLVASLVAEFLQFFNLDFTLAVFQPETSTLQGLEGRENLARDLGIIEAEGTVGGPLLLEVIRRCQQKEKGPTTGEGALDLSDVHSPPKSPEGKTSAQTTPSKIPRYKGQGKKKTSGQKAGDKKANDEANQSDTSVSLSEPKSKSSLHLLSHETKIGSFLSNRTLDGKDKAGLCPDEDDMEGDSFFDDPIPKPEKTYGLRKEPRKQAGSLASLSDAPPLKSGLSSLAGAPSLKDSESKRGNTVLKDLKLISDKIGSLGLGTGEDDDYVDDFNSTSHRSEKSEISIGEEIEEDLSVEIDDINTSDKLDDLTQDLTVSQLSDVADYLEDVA
UniProt Q8N0W3: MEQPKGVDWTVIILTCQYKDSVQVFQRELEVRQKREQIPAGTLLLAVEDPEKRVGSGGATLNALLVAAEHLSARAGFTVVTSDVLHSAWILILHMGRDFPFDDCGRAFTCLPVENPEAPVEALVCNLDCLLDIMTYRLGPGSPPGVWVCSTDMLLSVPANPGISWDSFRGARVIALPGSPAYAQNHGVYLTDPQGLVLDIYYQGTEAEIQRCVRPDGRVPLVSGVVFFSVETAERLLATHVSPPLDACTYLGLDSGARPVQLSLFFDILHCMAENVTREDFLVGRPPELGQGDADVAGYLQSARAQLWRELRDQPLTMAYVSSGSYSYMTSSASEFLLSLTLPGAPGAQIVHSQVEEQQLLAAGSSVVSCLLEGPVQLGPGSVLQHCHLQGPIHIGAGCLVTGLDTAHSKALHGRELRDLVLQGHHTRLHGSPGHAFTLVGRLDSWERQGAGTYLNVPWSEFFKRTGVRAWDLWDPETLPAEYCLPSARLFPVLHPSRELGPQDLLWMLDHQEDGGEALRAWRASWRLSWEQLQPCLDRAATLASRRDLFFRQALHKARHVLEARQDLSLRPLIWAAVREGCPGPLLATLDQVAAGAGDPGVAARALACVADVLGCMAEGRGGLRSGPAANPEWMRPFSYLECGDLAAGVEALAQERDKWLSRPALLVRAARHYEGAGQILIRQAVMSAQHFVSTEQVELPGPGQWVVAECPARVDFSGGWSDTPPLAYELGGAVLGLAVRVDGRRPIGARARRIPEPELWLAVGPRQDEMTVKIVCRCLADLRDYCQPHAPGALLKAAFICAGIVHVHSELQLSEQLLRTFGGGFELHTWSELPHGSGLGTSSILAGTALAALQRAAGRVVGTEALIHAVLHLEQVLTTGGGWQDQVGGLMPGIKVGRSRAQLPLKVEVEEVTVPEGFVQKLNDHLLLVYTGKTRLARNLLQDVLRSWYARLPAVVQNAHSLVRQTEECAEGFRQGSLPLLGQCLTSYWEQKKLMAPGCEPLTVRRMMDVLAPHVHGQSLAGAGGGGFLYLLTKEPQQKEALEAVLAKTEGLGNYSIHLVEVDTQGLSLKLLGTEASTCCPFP
UniProt Q5HYJ3: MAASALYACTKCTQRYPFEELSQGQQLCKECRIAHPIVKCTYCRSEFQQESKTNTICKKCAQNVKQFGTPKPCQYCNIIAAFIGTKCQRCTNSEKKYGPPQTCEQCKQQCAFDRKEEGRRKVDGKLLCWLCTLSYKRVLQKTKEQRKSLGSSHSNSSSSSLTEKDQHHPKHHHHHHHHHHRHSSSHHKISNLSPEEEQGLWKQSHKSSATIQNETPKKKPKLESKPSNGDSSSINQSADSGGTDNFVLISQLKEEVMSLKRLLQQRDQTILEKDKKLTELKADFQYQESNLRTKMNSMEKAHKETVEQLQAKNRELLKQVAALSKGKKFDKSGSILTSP
UniProt Q96AC1: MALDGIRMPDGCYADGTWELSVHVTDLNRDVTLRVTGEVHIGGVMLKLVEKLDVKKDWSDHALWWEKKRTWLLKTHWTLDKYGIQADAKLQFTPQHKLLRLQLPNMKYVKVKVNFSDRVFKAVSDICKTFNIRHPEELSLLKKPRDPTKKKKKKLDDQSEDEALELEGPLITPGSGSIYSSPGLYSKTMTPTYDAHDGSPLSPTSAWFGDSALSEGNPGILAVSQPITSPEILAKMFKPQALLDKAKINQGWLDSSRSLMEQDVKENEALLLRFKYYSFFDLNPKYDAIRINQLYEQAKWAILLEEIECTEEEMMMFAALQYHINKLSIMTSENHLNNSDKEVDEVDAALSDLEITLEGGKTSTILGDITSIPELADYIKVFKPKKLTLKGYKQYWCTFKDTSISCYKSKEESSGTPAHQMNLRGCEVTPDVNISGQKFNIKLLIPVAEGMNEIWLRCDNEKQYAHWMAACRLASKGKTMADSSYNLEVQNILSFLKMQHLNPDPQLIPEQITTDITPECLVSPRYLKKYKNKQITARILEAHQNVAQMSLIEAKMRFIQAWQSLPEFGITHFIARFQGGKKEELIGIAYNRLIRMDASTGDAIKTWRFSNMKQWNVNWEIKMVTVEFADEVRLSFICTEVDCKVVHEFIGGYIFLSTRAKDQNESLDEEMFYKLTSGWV
UniProt Q9HA64: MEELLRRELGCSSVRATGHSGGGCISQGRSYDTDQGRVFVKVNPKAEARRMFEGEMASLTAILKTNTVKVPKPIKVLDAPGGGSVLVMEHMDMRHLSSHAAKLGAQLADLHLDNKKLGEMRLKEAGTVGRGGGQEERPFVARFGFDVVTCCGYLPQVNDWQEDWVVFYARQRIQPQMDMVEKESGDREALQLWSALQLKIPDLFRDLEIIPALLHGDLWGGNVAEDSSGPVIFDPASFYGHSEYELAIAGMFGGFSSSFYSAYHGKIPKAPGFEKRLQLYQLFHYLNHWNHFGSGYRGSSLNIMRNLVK
UniProt Q96CP2: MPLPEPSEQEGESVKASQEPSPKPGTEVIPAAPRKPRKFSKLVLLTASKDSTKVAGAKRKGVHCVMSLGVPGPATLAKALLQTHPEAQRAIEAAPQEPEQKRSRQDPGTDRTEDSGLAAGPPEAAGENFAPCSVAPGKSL
UniProt P26885: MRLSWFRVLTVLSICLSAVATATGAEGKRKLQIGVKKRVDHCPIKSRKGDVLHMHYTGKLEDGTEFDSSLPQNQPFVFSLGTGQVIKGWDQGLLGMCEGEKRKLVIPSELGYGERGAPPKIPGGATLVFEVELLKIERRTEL
UniProt Q14192: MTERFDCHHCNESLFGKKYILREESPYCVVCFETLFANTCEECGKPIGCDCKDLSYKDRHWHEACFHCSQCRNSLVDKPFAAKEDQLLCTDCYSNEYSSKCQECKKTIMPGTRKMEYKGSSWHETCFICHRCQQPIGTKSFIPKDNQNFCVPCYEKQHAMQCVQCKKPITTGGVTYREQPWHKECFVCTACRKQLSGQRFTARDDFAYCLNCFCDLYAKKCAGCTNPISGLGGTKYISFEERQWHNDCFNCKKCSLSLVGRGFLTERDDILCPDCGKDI
UniProt Q9Y421: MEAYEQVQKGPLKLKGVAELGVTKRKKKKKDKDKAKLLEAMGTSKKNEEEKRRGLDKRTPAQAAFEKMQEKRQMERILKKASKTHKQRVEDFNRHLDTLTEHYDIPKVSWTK
UniProt Q9NSD9: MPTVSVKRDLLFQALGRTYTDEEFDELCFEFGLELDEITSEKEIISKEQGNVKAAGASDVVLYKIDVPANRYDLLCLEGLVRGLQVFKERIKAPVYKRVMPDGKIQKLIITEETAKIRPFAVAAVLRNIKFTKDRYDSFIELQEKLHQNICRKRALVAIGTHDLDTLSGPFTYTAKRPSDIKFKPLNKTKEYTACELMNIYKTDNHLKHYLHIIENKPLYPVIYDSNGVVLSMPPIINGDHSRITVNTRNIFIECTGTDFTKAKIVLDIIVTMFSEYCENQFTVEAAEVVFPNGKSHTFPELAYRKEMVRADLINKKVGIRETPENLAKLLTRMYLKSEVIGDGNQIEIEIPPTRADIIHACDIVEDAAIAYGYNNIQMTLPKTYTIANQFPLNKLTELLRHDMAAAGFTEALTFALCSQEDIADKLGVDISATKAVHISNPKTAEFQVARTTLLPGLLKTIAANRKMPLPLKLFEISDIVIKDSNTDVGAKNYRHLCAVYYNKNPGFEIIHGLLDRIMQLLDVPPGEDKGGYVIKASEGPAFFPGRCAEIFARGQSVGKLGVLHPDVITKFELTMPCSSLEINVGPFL
UniProt Q8WVX9: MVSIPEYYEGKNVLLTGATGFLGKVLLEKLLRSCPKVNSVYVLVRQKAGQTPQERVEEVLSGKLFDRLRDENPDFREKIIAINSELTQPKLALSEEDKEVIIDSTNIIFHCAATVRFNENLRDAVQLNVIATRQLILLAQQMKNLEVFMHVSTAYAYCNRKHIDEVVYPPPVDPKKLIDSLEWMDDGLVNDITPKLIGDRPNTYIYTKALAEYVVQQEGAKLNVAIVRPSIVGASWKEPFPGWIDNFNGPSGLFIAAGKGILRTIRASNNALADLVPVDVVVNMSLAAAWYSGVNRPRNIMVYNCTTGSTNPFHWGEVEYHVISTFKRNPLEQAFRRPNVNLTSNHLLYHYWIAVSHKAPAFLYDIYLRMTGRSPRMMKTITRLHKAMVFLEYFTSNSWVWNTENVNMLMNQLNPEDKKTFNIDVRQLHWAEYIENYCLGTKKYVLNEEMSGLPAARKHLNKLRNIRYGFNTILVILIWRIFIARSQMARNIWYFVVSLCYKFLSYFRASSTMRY
UniProt Q8TB52: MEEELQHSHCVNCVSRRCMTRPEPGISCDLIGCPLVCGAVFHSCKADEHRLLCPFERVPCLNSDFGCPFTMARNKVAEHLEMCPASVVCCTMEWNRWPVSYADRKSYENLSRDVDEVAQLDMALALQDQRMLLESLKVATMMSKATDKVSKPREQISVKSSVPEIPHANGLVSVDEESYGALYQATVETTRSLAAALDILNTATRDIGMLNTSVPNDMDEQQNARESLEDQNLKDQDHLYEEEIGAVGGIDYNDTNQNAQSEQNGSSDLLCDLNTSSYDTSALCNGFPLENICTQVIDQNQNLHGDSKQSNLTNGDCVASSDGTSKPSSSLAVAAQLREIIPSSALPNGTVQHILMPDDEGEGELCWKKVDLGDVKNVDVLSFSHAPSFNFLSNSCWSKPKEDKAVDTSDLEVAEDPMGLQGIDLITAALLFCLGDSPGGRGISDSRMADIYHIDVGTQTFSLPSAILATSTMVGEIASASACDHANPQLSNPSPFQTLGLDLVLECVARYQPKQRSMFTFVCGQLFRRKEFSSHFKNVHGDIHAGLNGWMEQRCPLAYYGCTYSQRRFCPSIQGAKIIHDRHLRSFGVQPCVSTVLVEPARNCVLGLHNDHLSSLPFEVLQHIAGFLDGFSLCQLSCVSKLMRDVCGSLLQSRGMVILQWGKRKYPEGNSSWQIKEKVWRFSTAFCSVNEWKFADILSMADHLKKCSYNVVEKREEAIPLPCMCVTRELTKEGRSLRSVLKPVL
UniProt P23142: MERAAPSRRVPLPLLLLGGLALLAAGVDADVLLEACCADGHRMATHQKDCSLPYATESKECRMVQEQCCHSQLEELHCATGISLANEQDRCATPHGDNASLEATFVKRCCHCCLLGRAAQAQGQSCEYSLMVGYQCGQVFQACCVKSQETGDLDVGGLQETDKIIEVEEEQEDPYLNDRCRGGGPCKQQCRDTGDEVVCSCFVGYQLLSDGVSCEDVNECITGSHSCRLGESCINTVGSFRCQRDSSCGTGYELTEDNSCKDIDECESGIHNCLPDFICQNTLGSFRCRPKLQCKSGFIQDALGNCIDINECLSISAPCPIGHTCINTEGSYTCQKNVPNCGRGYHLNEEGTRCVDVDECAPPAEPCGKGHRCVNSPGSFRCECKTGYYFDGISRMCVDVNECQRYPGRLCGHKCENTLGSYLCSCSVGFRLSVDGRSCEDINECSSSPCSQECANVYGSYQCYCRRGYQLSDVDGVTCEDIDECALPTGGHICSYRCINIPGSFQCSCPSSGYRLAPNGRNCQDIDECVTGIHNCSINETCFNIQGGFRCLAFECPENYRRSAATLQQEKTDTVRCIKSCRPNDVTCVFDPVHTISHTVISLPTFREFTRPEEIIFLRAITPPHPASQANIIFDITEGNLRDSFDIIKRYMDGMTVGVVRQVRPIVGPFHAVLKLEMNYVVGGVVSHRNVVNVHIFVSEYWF

compound: Cc1ccc(NC(=O)c2ccc(CN3CC[C@H](N(C)C)C3)c(C(F)(F)F)c2)cc1Nc1nccc(-c2cncnc2)n1 [bafetinib]; assay: log2 fold change, soluble protein after heating vs DMSO (PISA); higher = thermal stabilisation; K562 cells, 10 uM, 30 min; active = over 0.2 and 3.5 SD of the protein, either way, in both replicates (recomputed)
Outline: (§1)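 K562 cells at 2×10^6 cells/mL were given 10 μM compound for 30 min. Aliquots then went through 3 min of heating across 48°C-58°C, were pooled, and were extracted in PBS with 0.5% NP-40 at 4°C, and the supernatant after 21,000xg for 90 min was quantified by TMTpro 16plex LC-MS/MS with channel sums equalised. Thermal stability relative to control samples, from duplicates, is given as log2 fold change.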

log2 fold change, inactive:
FBXO22 (UniProt Q8NEZ5) -0.008
FNBP4 isoform 2 (UniProt Q8N3X1) -0.048
FGFR1OP (UniProt O95684) 0.007
FCSK isoform 2 (UniProt Q8N0W3) -0.102
FAM76B (UniProt Q5HYJ3) -0.026
FLVCR1 (UniProt Q9Y5Y0) 0.032
FAM98A (UniProt Q8NCA5) 0.114
FERMT2 isoform 3 (UniProt Q96AC1) -0.13
FN3K (UniProt Q9H479) 0.013
FEM1B (UniProt Q9UK73) -0.076
FN1 isoform 1 (UniProt P02751) -0.11
FN3KRP (UniProt Q9HA64) -0.021
FIP1L1 (UniProt Q6UN15) -0.027
FLYWCH2 (UniProt Q96CP2) -0.004
FDX1 (UniProt P10109) -0.042
FLOT2 (UniProt Q14254) 0.126
FAM98B (UniProt Q52LJ0) 0.139
FLOT1 (UniProt O75955) 0.079
FBXO5 (UniProt Q9UKT4) 0.041
FLT4 (UniProt P35916) -0.032
FLAD1 (UniProt Q8NFF5) -0.087
FLII (UniProt Q13045) -0.031
FLNB isoform 8 (UniProt O75369) -0.025
FLNC (UniProt Q14315) -0.024
FCGR2C (UniProt P31995) 0.011
FKBP5 (UniProt Q13451) 0.011
FKBP2 (UniProt P26885) -0.088
FHL2 (UniProt Q14192) -0.052
FAM210A (UniProt Q96ND0) -0.148
FAM32A (UniProt Q9Y421) 0.07
FARSB (UniProt Q9NSD9) -0.009
FAM78A (UniProt Q5JUQ0) -0.218
FKBP9 (UniProt O95302) -0.052
FAR1 (UniProt Q8WVX9) -0.083
FBXO30 (UniProt Q8TB52) -0.06
FKBP15 (UniProt Q5T1M5) -0.02
FBLN1 (UniProt P23142) -0.248

compound: Cc1cccc(CC(=O)N2CCc3c2ccc(-c2cn(C)c4ncnc(N)c24)c3F)n1; assay: as above
Outline: as §1

log2 fold change, inactive:
FBXO22 (UniProt Q8NEZ5) 0.091
FNBP4 isoform 2 (UniProt Q8N3X1) -0.035
FGFR1OP (UniProt O95684) 0.004
FCSK isoform 2 (UniProt Q8N0W3) -0.051
FAM76B (UniProt Q5HYJ3) 0.185
FLVCR1 (UniProt Q9Y5Y0) -0.153
FAM98A (UniProt Q8NCA5) 0.039
FERMT2 isoform 3 (UniProt Q96AC1) 0.061
FN3K (UniProt Q9H479) 0.041
FEM1B (UniProt Q9UK73) -0.058
FN1 isoform 1 (UniProt P02751) -0.043
FN3KRP (UniProt Q9HA64) 0.008
FIP1L1 (UniProt Q6UN15) -0.022
FLYWCH2 (UniProt Q96CP2) 0.124
FDX1 (UniProt P10109) 0.046
FLOT2 (UniProt Q14254) 0.02
FAM98B (UniProt Q52LJ0) 0.064
FLOT1 (UniProt O75955) 0.077
FBXO5 (UniProt Q9UKT4) 0.006
FLT4 (UniProt P35916) -0.135
FLAD1 (UniProt Q8NFF5) 0.007
FLII (UniProt Q13045) 0.01
FLNB isoform 8 (UniProt O75369) 0.003
FLNC (UniProt Q14315) 0.018
FCGR2C (UniProt P31995) -0.044
FKBP5 (UniProt Q13451) 0.035
FKBP2 (UniProt P26885) -0.023
FHL2 (UniProt Q14192) -0.081
FAM210A (UniProt Q96ND0) -0.054
FAM32A (UniProt Q9Y421) -0.054
FARSB (UniProt Q9NSD9) 0.007
FAM78A (UniProt Q5JUQ0) 0.075
FKBP9 (UniProt O95302) -0.029
FAR1 (UniProt Q8WVX9) -0.008
FBXO30 (UniProt Q8TB52) 0.084
FKBP15 (UniProt Q5T1M5) 0.083
FBLN1 (UniProt P23142) -0.083
